The results in this text go back to PMC10307939 (Pharmacology Research & Perspectives, 2023).

The target in assay [1] is mouse kappa opioid receptor (Mus musculus, UniProt P33534). In words: Radioligand competition binding, mKOR‐CHO membranes. The following applies: K i at KOR divided by K i at MOR. In general terms: Displacement assays read how much labelled ligand stays bound in the presence of the test substance.
Assay [2] deals with T1, human delta‐opioid receptor (Homo sapiens, UniProt P41143). Nature of the assay: Radioligand competition binding, hDOR‐CHO membranes. Particulars: K i at DOR divided by K i at MOR.
In assay [3] the target is T1, human delta‐opioid receptor. In words: Ligand‐stimulated [35S]GTPγS binding, hDOR‐CHO membranes. The assay is classed as biochemical.
For assay [4], the system named is male and female ICR mice. In words: Horizontal locomotor activity, 60‐min session. The assay is classed as in vivo. The following applies: Mus musculus, sc.

For `CN1c2ccccc2C(NCCCCCCC(=O)O)c2ccc(Cl)cc2S1(=O)=O` (stereo not shown) [Tianeptine, reference compound], the “MOR/KOR (fold selectivity for MOR over KOR)” value in assay [1] was >50 000 fold. Moreover, the “MOR/DOR (fold selectivity for MOR over DOR)” value in assay [2] is listed as 36.2 fold; in assay [2] (listed as tianeptine), “more than 30 fold”. In addition, the “Fold difference in [35S]GTPγS potency, MOR versus DOR” value in assay [3] (higher potency at MOR than at DOR) amounted to 3 fold. The Emax in assay [3] (read-out: DOR E max) came to 103 ± 3.72%; in assay [4] (1 h, read-out: E max (95%CL), % Methadone E max), 103%. In addition, the ED50 (usually the dose that gives a 50% effect, or the effect in half of the subjects) in assay [4] (read-out: ED50 (95% CL)) was determined as 18.3 mg/kg.
